Results from the supplement of paper PMC10849652.
The list shows a part of the results.

By UniProt entry, the sequences of proteins in these tests, tags left out. Where a name states a change or a piece, a line headed by the entry shows the natural chain unless it says otherwise.
UniProt O60499: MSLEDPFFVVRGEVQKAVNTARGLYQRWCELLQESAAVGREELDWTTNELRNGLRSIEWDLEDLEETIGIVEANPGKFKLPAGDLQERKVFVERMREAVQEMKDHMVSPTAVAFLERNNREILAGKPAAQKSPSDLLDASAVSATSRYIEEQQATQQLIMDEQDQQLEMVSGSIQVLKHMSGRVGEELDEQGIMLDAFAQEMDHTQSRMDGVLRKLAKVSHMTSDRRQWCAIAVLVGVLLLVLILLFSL
UniProt Q15527: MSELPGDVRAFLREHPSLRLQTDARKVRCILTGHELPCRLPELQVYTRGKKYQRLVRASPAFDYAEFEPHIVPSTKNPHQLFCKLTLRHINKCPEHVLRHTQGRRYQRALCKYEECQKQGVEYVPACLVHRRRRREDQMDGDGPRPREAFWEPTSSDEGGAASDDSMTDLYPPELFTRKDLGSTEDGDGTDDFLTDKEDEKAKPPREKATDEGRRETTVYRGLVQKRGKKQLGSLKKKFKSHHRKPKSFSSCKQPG
UniProt Q96C24: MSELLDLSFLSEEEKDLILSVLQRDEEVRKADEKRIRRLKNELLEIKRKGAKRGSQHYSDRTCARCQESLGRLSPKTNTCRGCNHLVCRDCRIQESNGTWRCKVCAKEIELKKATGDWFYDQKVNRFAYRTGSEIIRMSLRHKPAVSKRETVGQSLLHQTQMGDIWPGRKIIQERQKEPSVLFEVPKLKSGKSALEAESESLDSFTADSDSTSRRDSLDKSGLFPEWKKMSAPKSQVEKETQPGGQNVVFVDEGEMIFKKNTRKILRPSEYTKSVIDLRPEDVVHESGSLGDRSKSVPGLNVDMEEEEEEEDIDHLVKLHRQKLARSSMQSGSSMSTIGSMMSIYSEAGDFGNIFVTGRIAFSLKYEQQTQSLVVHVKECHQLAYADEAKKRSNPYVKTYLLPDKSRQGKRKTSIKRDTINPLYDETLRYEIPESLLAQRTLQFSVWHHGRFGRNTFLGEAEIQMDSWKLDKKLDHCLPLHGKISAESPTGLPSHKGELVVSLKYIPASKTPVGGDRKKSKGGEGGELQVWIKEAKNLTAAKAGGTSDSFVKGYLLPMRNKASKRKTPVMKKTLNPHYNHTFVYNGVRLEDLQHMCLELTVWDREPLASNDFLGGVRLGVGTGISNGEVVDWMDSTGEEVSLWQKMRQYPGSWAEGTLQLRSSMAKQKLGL
UniProt Q7RTN6: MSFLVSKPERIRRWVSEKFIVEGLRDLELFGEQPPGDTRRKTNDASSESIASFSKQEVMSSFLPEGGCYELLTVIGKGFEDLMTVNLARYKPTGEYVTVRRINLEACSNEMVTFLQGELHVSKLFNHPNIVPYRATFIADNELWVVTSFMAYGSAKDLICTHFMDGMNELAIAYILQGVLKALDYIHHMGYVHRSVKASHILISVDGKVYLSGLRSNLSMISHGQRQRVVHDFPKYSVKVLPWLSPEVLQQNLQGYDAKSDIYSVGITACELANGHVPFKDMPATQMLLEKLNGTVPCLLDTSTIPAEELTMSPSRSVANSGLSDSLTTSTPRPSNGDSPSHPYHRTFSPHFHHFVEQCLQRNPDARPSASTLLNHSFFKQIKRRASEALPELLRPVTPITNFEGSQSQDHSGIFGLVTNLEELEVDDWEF
UniProt Q8WXE9: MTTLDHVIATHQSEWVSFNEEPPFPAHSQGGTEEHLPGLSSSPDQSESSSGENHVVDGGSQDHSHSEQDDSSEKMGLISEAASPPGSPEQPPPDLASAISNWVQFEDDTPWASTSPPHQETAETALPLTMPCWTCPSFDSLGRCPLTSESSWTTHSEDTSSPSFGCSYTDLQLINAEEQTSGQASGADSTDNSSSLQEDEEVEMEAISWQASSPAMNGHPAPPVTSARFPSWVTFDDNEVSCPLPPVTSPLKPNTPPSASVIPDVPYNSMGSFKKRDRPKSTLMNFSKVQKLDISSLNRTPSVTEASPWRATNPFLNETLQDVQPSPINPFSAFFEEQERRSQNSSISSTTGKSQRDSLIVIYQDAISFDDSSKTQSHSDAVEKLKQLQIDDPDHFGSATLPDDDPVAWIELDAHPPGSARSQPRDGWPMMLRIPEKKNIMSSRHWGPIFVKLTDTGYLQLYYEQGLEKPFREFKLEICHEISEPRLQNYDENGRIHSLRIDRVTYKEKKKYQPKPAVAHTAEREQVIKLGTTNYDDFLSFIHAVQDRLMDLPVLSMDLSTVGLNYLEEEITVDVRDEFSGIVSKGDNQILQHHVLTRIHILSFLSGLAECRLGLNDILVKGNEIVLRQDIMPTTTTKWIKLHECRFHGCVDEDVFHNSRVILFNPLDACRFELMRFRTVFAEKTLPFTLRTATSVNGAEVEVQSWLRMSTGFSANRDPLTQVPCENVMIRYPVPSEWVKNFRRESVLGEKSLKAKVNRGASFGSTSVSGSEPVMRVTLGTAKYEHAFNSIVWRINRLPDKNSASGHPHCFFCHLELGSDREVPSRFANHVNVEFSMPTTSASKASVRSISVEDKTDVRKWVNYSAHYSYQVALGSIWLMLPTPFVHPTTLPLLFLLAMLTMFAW
UniProt Q9UMZ2: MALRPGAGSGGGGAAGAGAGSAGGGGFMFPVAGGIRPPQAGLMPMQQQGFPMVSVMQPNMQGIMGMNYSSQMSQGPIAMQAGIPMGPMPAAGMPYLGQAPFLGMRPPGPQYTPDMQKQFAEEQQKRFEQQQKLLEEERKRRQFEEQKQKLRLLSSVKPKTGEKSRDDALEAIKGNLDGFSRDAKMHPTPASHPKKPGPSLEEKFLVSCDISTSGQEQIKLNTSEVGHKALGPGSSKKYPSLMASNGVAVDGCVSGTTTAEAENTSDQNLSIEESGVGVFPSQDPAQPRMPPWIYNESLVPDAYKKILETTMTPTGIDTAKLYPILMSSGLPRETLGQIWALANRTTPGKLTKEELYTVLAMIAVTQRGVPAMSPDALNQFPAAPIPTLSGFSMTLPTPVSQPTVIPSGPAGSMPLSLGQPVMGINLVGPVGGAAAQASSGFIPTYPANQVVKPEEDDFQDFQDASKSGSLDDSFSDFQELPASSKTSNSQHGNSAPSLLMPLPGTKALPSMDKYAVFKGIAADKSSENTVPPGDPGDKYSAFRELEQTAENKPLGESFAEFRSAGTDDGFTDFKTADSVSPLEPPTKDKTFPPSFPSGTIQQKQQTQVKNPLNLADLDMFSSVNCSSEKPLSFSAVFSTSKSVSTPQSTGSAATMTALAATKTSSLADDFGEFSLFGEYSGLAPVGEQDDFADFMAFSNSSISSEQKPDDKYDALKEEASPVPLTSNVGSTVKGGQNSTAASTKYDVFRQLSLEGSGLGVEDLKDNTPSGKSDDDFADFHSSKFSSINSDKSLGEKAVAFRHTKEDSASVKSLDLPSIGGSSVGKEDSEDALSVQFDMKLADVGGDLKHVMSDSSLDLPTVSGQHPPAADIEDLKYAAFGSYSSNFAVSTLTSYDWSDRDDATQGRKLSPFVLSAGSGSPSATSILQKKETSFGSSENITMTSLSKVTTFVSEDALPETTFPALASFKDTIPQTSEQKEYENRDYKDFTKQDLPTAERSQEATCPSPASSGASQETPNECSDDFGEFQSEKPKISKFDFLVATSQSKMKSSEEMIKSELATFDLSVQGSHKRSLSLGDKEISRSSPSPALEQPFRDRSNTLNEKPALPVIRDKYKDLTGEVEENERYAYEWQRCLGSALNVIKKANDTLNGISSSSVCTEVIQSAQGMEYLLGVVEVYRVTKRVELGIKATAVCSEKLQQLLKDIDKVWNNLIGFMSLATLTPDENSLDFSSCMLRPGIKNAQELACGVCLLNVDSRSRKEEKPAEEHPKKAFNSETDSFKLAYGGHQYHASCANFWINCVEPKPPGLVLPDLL
UniProt O15400: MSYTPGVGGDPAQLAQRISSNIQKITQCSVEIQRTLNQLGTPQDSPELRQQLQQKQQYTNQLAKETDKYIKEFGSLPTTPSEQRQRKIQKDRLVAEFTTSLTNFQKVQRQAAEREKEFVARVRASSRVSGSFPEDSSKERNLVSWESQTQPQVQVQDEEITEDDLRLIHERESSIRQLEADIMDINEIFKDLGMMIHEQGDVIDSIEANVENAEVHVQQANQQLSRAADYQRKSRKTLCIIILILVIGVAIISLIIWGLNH
UniProt Q8NHG7: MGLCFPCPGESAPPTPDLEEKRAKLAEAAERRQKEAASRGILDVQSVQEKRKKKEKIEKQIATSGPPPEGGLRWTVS
UniProt Q92804: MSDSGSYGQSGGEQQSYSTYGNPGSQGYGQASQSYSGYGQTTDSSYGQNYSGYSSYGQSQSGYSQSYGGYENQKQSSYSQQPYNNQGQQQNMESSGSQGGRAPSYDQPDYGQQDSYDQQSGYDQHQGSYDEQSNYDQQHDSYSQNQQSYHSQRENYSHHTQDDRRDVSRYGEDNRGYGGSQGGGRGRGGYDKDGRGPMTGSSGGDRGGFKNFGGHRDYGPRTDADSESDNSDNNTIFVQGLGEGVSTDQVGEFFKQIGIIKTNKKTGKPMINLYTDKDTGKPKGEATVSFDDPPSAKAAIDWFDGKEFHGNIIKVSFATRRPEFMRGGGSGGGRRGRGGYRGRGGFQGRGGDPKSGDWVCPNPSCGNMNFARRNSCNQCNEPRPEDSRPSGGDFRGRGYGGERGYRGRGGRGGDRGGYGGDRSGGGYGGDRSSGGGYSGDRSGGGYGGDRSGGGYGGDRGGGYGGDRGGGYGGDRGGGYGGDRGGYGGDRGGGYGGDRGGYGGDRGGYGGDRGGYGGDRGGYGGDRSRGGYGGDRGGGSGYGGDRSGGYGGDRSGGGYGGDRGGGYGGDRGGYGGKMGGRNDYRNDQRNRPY
UniProt Q5T5C0: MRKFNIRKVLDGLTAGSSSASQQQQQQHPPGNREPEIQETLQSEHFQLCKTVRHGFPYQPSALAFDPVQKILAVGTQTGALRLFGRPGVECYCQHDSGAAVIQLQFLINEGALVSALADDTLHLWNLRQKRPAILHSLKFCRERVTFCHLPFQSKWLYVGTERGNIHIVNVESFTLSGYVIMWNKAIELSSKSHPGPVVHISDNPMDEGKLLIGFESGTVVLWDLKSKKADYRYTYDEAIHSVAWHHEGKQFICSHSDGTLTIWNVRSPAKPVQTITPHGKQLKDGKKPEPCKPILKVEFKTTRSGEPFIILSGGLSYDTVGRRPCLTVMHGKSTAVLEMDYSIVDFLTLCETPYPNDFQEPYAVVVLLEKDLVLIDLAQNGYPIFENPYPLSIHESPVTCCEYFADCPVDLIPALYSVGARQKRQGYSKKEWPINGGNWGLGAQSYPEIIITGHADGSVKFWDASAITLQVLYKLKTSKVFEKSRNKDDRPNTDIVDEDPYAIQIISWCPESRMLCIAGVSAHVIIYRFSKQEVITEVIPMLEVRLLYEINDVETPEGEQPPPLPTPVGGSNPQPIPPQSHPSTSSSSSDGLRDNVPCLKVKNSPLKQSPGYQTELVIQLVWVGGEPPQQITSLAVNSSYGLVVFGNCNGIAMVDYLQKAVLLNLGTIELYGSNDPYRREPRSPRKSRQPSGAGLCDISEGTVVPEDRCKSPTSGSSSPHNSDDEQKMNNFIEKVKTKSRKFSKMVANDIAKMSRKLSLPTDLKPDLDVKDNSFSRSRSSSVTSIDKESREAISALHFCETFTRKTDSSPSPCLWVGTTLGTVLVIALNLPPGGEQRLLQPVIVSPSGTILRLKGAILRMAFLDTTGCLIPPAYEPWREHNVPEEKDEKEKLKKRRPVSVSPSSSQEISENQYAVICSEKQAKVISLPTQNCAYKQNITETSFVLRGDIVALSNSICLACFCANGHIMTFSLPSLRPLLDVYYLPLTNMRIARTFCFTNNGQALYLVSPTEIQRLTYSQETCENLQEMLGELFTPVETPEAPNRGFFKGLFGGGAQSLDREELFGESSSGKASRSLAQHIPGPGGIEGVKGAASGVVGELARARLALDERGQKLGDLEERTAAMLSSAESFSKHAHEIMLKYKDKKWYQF
UniProt P31948, whole entry, looked up: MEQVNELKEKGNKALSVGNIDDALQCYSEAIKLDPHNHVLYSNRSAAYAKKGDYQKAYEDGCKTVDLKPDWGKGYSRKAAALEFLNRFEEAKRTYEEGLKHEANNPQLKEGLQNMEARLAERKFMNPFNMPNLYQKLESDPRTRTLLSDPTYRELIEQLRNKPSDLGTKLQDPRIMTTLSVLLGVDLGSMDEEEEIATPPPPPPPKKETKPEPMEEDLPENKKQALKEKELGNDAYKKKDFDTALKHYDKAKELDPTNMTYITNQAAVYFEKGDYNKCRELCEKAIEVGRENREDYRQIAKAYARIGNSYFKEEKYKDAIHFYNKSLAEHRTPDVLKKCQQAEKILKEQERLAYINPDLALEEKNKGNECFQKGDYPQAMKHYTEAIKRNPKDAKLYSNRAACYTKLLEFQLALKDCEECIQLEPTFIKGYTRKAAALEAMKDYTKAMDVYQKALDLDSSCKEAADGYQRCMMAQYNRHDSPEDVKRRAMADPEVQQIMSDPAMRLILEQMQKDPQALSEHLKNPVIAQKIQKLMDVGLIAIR

Tests used:
Experiment in all cases: log2 fold change, soluble protein after heating vs DMSO (PISA); higher = thermal stabilisation; K562 lysate, 10 uM; active = over 0.2 and 3.5 SD of the protein, either way, in both replicates (recomputed)
[1] = compound: Cc1cn(-c2cc(NC(=O)c3ccc(C)c(Nc4nccc(-c5cccnc5)n4)c3)cc(C(F)(F)F)c2)cn1 [nilotinib]
Procedure, shortened: (§1)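 Values give the log-two fold change in thermal stability against solvent controls, from duplicates. Crude K562 extract at 1 mg/mL protein, made by dounce homogenisation in PBS pH 7.4 with 1 mM MgCl2, was treated with 10 μM compound for 30 min. After 3 min heating across 48°C-58°C, aliquots were pooled, adjusted to 0.5% NP-40 at 4°C and centrifuged at 21,000xg for 90 min. The supernatant was measured by TMTpro 16plex LC-MS/MS with channel sums equalised.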

[2] = compound: Cc1nc(Nc2n[nH]c3c2CN(C(=O)N[C@H](CN(C)C)c2ccccc2)C3(C)C)c2sccc2n1
Procedure, shortened: as §1

[3] = compound: Cc1nc(Nc2ncc(C(=O)Nc3c(C)cccc3Cl)s2)cc(N2CCN(CCO)CC2)n1 [dasatinib]
Procedure, shortened: as §1

[4] = compound: Cc1ncc(-c2ccnc(Nc3ccc(S(C)(=O)=O)cc3)n2)n1C(C)C
Procedure, shortened: as §1

[5] = compound: Cn1cc(-c2ccc3c(c2)CCN3C(=O)Cc2cccc(C(F)(F)F)c2)c2c(N)ncnc21
Procedure, shortened: as §1

[6] = compound: Cn1cc(CNCC2CCN(c3ncc(C(=O)NO)cn3)CC2)c2ccccc21 [quisinostat]
Procedure, shortened: as §1

[7] = compound: Cn1cncc1[C@@](N)(c1ccc(Cl)cc1)c1ccc2c(c1)c(-c1cccc(Cl)c1)cc(=O)n2C [tipifarnib]
Procedure, shortened: as §1

[8] = compound: NC(=O)Nc1cc(-c2cccc(F)c2)sc1C(=O)N[C@H]1CCCNC1
Procedure, shortened: as §1

[9] = compound: NC1(c2ccc(-c3nc4ccn5c(=O)[nH]nc5c4cc3-c3ccccc3)cc2)CCC1
Procedure, shortened: as §1

[10] = compound: NCC(=O)Nc1ccc(-n2nc(C(F)(F)F)cc2-c2ccc3c(ccc4ccccc43)c2)cc1
Procedure, shortened: as §1

[11] = compound: O=C(CCCCCCC(=O)Nc1ccccc1)NO [vorinostat]
Procedure, shortened: as §1

[12] = compound: O=C(O)c1ccc2c(c1)nc(Nc1cccc(Cl)c1)c1ccncc12 [silmitasertib]
Procedure, shortened: as §1

[13] = compound: O=C1NC(=O)C(c2cnc3ccccn23)=C1c1cn2c3c(cc(F)cc13)CN(C(=O)N1CCCCC1)CC2
Procedure, shortened: as §1

[14] = compound: c1cn2cc(-c3ccc4cn[nH]c4c3)nc(Nc3ccc(N4CCOCC4)cc3)c2n1 [entospletinib]
Procedure, shortened: as §1

[15] = compound: NC(=O)c1cnc(N[C@@H]2CCCC[C@@H]2N)nc1Nc1cccc(-n2nccn2)c1
Procedure, shortened: as §1

Measured: log2 fold change

SYK (UniProt P43405)
inactive: [1] 0.02 | [2] -0.031 | [3] -0.067 | [4] 0 | [5] 0.01 | [6] -0.077 | [7] -0.002 | [8] -0.095 | [9] -0.064 | [10] 0.135 | [11] -0.138 | [12] 0.053 | [13] 0.016 | [14] -0.079

STX10 (UniProt O60499)
inactive: [1] 0.166 | [2] 0.147 | [3] -0.003 | [4] 0.018 | [5] -0.057 | [6] -0.025 | [7] 0.017 | [8] -0.045 | [15] 0.017 | [9] -0.012 | [10] 0.049 | [11] 0.088 | [12] -0.035 | [13] -0.004 | [14] 0.015

SURF2 (UniProt Q15527)
inactive: [1] -0.192 | [2] -0.052 | [3] -0.045 | [4] 0.195 | [5] -0.031 | [6] -0.054 | [7] 0.066 | [8] -0.036 | [15] 0.014 | [10] -0.01 | [13] 0.04 | [14] 0.049

SYTL4 (UniProt Q96C24)
inactive: [1] 0.141 | [2] 0.001 | [3] 0.04 | [4] -0.102 | [5] 0.056 | [6] -0.053 | [7] 0.464 | [8] -0.054 | [15] 0.119 | [9] -0.054 | [10] -0.119 | [11] 0.002 | [12] 0.008 | [13] -0.008 | [14] 0.01

STK17B (UniProt O94768)
active: [12] 0.807
inactive: [1] -0.006 | [2] -0.022 | [3] -0.063 | [4] -0.197 | [5] 0.065 | [6] -0.255 | [7] -0.08 | [8] 0.634 | [9] -0.021 | [11] -0.221 | [13] 0.052

TADA2B (UniProt Q86TJ2)
inactive: [1] -0.044 | [2] -0.196 | [3] 0.102 | [4] 0.124 | [5] -0.132 | [6] 0.027 | [7] 0.1 | [8] 0 | [9] -0.104 | [10] -0.221 | [11] -0.495 | [12] 0.194 | [13] -0.138

STRADA (UniProt Q7RTN6)
inactive: [1] 0.063 | [2] -0.037 | [3] -0.017 | [4] -0.01 | [5] -0.127 | [6] -0.012 | [7] 0.061 | [8] 0.093 | [15] 0.032 | [9] 0.001 | [10] 0.04 | [11] 0.092 | [12] 0.043 | [13] 0.017 | [14] 0.015

TAF11 (UniProt Q15544)
inactive: [1] 0.05 | [2] -0.049 | [3] -0.142 | [4] -0.034 | [5] -0.051 | [6] -0.085 | [7] 0.057 | [8] 0.046 | [15] -0.03 | [10] -0.005 | [13] 0.05 | [14] -0.073

STON2 isoform 3 (UniProt Q8WXE9)
inactive: [1] -0.042 | [2] -0.047 | [3] -0.015 | [4] -0.056 | [5] 0.014 | [6] -0.053 | [7] 0.067 | [8] 0 | [15] 0.166 | [9] -0.031 | [10] 0.042 | [11] -0.006 | [12] 0.026 | [13] -0.118 | [14] -0.034

Two entries drawn at random from the list so far, as already listed:
STX10 (UniProt O60499)
inactive: [1] 0.166 | [2] 0.147 | [3] -0.003 | [4] 0.018 | [5] -0.057 | [6] -0.025 | [7] 0.017 | [8] -0.045 | [15] 0.017 | [9] -0.012 | [10] 0.049 | [11] 0.088 | [12] -0.035 | [13] -0.004 | [14] 0.015

SYK (UniProt P43405)
inactive: [1] 0.02 | [2] -0.031 | [3] -0.067 | [4] 0 | [5] 0.01 | [6] -0.077 | [7] -0.002 | [8] -0.095 | [9] -0.064 | [10] 0.135 | [11] -0.138 | [12] 0.053 | [13] 0.016 | [14] -0.079

Carrying on:

SUPT4H1 (UniProt P63272)
inactive: [1] 0.022 | [2] -0.009 | [3] -0.009 | [4] 0.019 | [5] -0.076 | [6] 0.088 | [7] -0.067 | [8] -0.007 | [15] -0.015 | [9] -0.043 | [10] 0.037 | [11] 0.127 | [12] -0.009 | [13] 0.026 | [14] -0.022

SYNRG (UniProt Q9UMZ2)
inactive: [1] -0.007 | [2] 0.012 | [3] 0.009 | [4] 0.036 | [5] 0.001 | [6] 0.021 | [7] -0.025 | [8] 0.018 | [15] 0.026 | [9] -0.079 | [10] 0.02 | [11] -0.002 | [12] -0.01 | [13] -0.002 | [14] -0.014

STX7 (UniProt O15400)
inactive: [1] 0.002 | [2] -0.02 | [3] -0.009 | [4] -0.012 | [5] 0.007 | [6] -0.001 | [7] 0.043 | [8] -0.009 | [15] -0.022 | [9] 0.014 | [10] 0.02 | [11] 0.135 | [12] -0.021 | [13] -0.001 | [14] 0.005

SVIP (UniProt Q8NHG7)
inactive: [1] -0.006 | [2] 0 | [3] -0.066 | [4] 0.089 | [5] -0.013 | [6] 0.034 | [7] 0.004 | [8] -0.095 | [15] -0.012 | [9] -0.004 | [10] 0.023 | [11] 0.171 | [12] -0.041 | [13] -0.013 | [14] -0.012

TAF15 (UniProt Q92804)
inactive: [1] -0.144 | [2] 0.025 | [3] 0.027 | [4] 0.034 | [5] -0.086 | [6] 0.031 | [7] 0.034 | [8] -0.012 | [15] -0.03 | [9] 0.038 | [10] -0.001 | [11] 0.1 | [12] -0.08 | [13] 0.01 | [14] 0.03

SUPT7L (UniProt O94864)
inactive: [1] -0.073 | [2] 0.042 | [3] 0.235 | [4] -0.118 | [5] -0.072 | [6] 0.112 | [7] 0.072 | [8] 0.048 | [15] 0.035 | [9] 0.062 | [10] -0.057 | [11] 0.009 | [12] -0.001 | [13] -0.033 | [14] -0.024

STXBP5 (UniProt Q5T5C0)
inactive: [1] 0.031 | [2] 0.007 | [3] 0.006 | [4] 0.019 | [5] 0.004 | [6] -0.035 | [7] 0.031 | [8] 0.004 | [15] -0.015 | [9] -0.027 | [10] 0.029 | [11] 0.047 | [12] -0.037 | [13] 0.006 | [14] -0.004

STIP1 isoform 2 (UniProt P31948)
inactive: [1] 0.017 | [2] 0.001 | [3] 0.017 | [4] 0.004 | [5] 0.018 | [6] 0.075 | [7] 0.023 | [8] -0.026 | [15] -0.018 | [9] 0.038 | [10] -0.02 | [11] 0.13 | [12] 0.004 | [13] 0.007 | [14] 0.013

TAB2 (UniProt Q9NYJ8)
inactive: [1] 0.01 | [2] 0.071 | [3] 0.001 | [4] -0.025 | [5] -0.014 | [6] -0.078 | [7] -0.095 | [8] 0.016 | [15] 0.061 | [9] 0.105 | [10] -0.007 | [11] -0.012 | [12] 0.176 | [13] 0.023 | [14] 0.078

TAB3 (UniProt Q8N5C8)
inactive: [1] -0.073 | [2] -0.019 | [3] -0.079 | [4] 0.086 | [5] 0.006 | [6] -0.093 | [7] -0.059 | [8] 0.028 | [15] 0.055 | [9] 0.021 | [11] -0.306 | [12] -0.035 | [13] 0.163 | [14] -0.251
